Values from PubChem BioAssay AID1259254 (NCATS, 2017).
Shown is an unselected part of about 59,000 reagents tested. In the full data, about 1,550 (2.6%) got an active call. 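G2 share is only a proxy for re-replication; each gene was hit by three separate siRNAs, and active genes were retested.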 Reagents against one gene are numbered here. Not all columns of the deposit are shown. No sequences are given here. Not given: the amount of reagent.

- Screen: 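Gene knock-downs that lead to re-replication, shown by excess G2 DNA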 (primary screen)
- Cells: human HCT116 colorectal cancer cells
- Reagent: single siRNA against human genes
- Time to read-out: 3 days
- Measured: 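Nuclei stained with Hoechst and imaged; cell-cycle phase assigned by DNA content; G2 share scaled per plate, non-targeting siRNA 0%, GMNN siRNA 100%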
- Reading the numbers: G2 robust z-score: higher = more G2 cells, more excess DNA replication
- Call rule: 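An siRNA counts as active if its G2 robust z-score lies at least 5 MADs above the screen median; here such calls match roughly 38% of GMNN control or more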

TNFRSF4 (GeneID 7293) #1 showed G2 robust z-score 0.102; inactive.
Depletion of TNFRSF4 (GeneID 7293) #2 came out at: G2 robust z-score -0.0746; inactive.
TNFRSF4 (GeneID 7293) #3 scored G2 robust z-score 0.949; inactive.
Against UBL7 (GeneID 84993) #1, the values are G2 robust z-score -0.279; inactive.
For UBL7 (GeneID 84993) #2, the entry reads G2 robust z-score 1.8; inactive.
UBL7 (GeneID 84993) #3 gave G2 robust z-score -0.877; inactive.
TACR2 (GeneID 6865) #1 scored G2 robust z-score -0.733; inactive.
TACR2 (GeneID 6865) #2 showed G2 robust z-score 4.91; inactive.
Silencing of TACR2 (GeneID 6865) #3 gave: G2 robust z-score 2.12; inactive.
Silencing of TPD52L3 (GeneID 89882) #1 resulted in: G2 robust z-score 0.413; inactive.
After knock-down of TPD52L3 (GeneID 89882) #2, the screen gave G2 robust z-score -0.521; inactive.
For TPD52L3 (GeneID 89882) #3, the values are G2 robust z-score 0.897; inactive.
With knock-down of ABHD14B (GeneID 84836) #1, the record shows G2 robust z-score 2.84; inactive.
ABHD14B (GeneID 84836) #2 gave G2 robust z-score 1.46; inactive.
For ABHD14B (GeneID 84836) #3, the values are G2 robust z-score -1.35; inactive.
After knock-down of ARMC5 (GeneID 79798) #1, the record shows G2 robust z-score -0.281; inactive.
Against ARMC5 (GeneID 79798) #2 the deposit lists G2 robust z-score 0.27; inactive.
Against ARMC5 (GeneID 79798) #3, the values are G2 robust z-score -0.721; inactive.
After knock-down of PLAAT1 (GeneID 57110) #1 the results were G2 robust z-score 0.192; inactive.
PLAAT1 (GeneID 57110) #2 scored G2 robust z-score 0.118; inactive.
For PLAAT1 (GeneID 57110) #3, the entry reads G2 robust z-score 1.75; inactive.
Against SNTG1 (GeneID 54212) #1, the values are G2 robust z-score -0.762; inactive.
After knock-down of SNTG1 (GeneID 54212) #2 the results were G2 robust z-score 5.63; active.
Knock-down of SNTG1 (GeneID 54212) #3 gave: G2 robust z-score -0.881; inactive.

Active calls (from the list above):
SNTG1 (GeneID 54212) #2: G2 robust z-score = 5.63; Outcome = active
